In assay [1] the target is SynAstaP, mature form (no signal peptide), residues 27-180 (Synechocystis sp. PCC 6803) (UniProt P74615). In words: SEC; analytical SEC with diode-array detection, Superdex 200 Increase 5/150, 20 mM Tris-HCl pH 7.5, 150 mM NaCl, 3 mM NaN3, 5 mM βME; apparent Mw from column calibration; both purified.
Assay [2] addresses AstaP-orange1 (AstaPo1), mature protein, residues 21-223 (Coelastrella astaxanthina sp. Ki-4) (UniProt S6BQ14). Described as above.

For two molecules, binding results are on record in paper PMC10147662, “Structural basis for the ligand promiscuity of the neofunctionalized, carotenoid-binding fasciclin domain protein AstaP” (Communications Biology, 2023).

No constants are given. Whether binding was seen depends on the method and setting.

B1: SynAstaP, mature form (no signal peptide), residues 27-180 (protein, UniProt P74615 27-180)
chain: GPHMEMETTEKSAVVSQAATDSAMTIVEVAAGNETFSTLVAAVKAADLVEALSAEGPFTVFAPTNDAFAALPAGTVESLLLPENKDKLVKILTYHVVPGKITAAQVQSGEVASLAGEALTFKVKDGKVKVNKATVISADVDASNGVIHVIDQVILPPM
Regarding B1, the binding result in assay [1] was “no binding (tested: 500 μM)”.

B2: AstaP-orange1 (AstaPo1), mature protein, residues 21-223 (protein, UniProt S6BQ14 21-223)
chain: GPHMATPKANATTAKPASTTSTPVYATLSNAVTAGAAAPQLTTLFAAVRAANVTGALTANTTWTILAPTNDAFAKRLAKLNLTADAVLKNKDLLVKILSYHVIPSGAVYSKALKDNATVATALKDASVTVRLYQGKVMFKGPVNKAQVTVADIKAGGSVIHVINDVLLPPGVVSDAVAKQWKAEWEAMKAEKKVAPKATTGRRFLLF
As to B2, the binding result in assay [2] is “no binding”.
